# Assay results as given in the supplement of paper PMC9135407.
# Where “and” joins values, the source holds several entries; their conditions need not be identical. Equal entries are not always repeated. Structures can show the parent of a compound that is named as a salt. ± gives the standard deviation of the averaged measurements. The list shows a part of the results. Part of the spread comes from offsets between plates or batches.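 Primary human stellate myofibroblasts activated in culture; inactivation shown by regained lipid droplets. Readout: fraction of Hoechst-counted cells exceeding a per-plate Bodipy threshold, duplicate wells, each plate with DMSO negative and nortriptyline positive controls. Hits: control-normalized score beyond the plate's top-tenth-percentile nortriptyline wells, or among its three best wells. Final well concentrations unstated.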
# System: primary human hepatic stellate cells (donor 1)
# Test: percent Bodipy-positive cells; higher = more lipid droplet accumulation
# Details: 48 h
# [1] = library stock concentration: 10 mM
# [2] = library stock concentration: 3.33 mM
# [3] = library stock concentration: 1 mM
compound,measurement,setting,value
Nc1nc(/C(=C/CC(=O)O)C(=O)N[C@@H]2C(=O)N3C(C(=O)O)=CCS[C@H]23)cs1 [Ceftibuten],percent Bodipy-positive cells,library stock concentration: 4.9 mM,14.7 ± 12%
same,percent Bodipy-positive cells,[1],37.2 ± 2.1%
C=CCN1CCc2cc(O)c(O)cc2C(c2ccccc2)C1 (centres undefined),percent Bodipy-positive cells,[1],28.3% and 9.62%
O=C(NCCCCCCNC(=O)ON=C1CCCCC1)ON=C1CCCCC1,percent Bodipy-positive cells,[1],11.5 ± 0.72%
same,percent Bodipy-positive cells,library stock concentration: 12.7 mM,21.7 ± 2.2%
CC(C)[C@H](O)C(=O)N[C@@H](C)C(=O)N[C@@H]1C(=O)N(C)CCc2ccccc21,percent Bodipy-positive cells,[2],6.94 ± 0.36%
same,percent Bodipy-positive cells,[1],7.23 ± 1.3%
Cc1[nH]nc2ccc(-c3cncc(OC[C@@H](N)Cc4ccccc4)c3)cc12,percent Bodipy-positive cells,[1],99.57 ± 0.6%
CN1CCN(CCCN2c3ccccc3Sc3ccc(C(F)(F)F)cc32)CC1.Cl.Cl [Trifluoperazine dihydrochloride],percent Bodipy-positive cells,[1],92.7 ± 2.4%
Cc1c(S(=O)(=O)O)oc2c1C(=O)C(=O)c1c-2ccc2c1CCCC2(C)C [Tanshinone iia sulfonate sodium],percent Bodipy-positive cells,[1],31.5 ± 3.2%
CC(C)NC[C@H](O)COc1cccc2ccccc12.Cl,percent Bodipy-positive cells,library stock concentration: 16.9 mM,88.9 ± 1.9%
NCCCS(=O)(=O)O [3-Amino-1-propanesulfonic acid sodium],percent Bodipy-positive cells,[1],25.5 ± 3.8%
NCCCS(=O)(=O)O [3-aminopropanesulphonic acid],percent Bodipy-positive cells,[1],22.5 ± 1.1%
CCOC(=O)c1ccnc(C(=O)OCC)c1,percent Bodipy-positive cells,[3],13.2 ± 6.3%
CCC(=O)O[C@]1(C(=O)SCF)[C@H](C)C[C@H]2[C@@H]3C[C@H](F)C4=CC(=O)C=C[C@]4(C)[C@@]3(F)[C@@H](O)C[C@@]21C [Fluticasone propionate],percent Bodipy-positive cells,,6.03 ± 0.066%
same,percent Bodipy-positive cells,[2],62.3 ± 4.4%
same,percent Bodipy-positive cells,[1],85.3% and 63.7%
CCC(=O)O[C@]1(C(=O)SCF)[C@H](C)C[C@H]2[C@@H]3C[C@H](F)C4=CC(=O)C=C[C@]4(C)[C@@]3(F)[C@@H](O)C[C@@]21C,percent Bodipy-positive cells,[1],52.4 ± 4.7%
C[N+]1(C)CCCC1C(=O)O (centres undefined) [Stachydrine hydrochloride],percent Bodipy-positive cells,,31.3 ± 0.94%
Cl.OCCN1CCN(CC/C=C2/c3ccccc3Sc3ccc(Cl)cc32)CC1 [Zuclopenthixol hydrochloride],percent Bodipy-positive cells,,66.8 ± 7.9%
NS(=O)(=O)c1nn2cc(-c3ccccc3)nc2s1,percent Bodipy-positive cells,[1],34.206 ± 0.0064%
CCc1cc(Cl)c(OC)c(C(=O)NC[C@@H]2CCCN2CC)c1O,percent Bodipy-positive cells,[1],70.4 ± 3.3%
CC1=CC(=O)C2=C(C)CC[C@@H]3[C@H](OC(=O)[C@H]3C)[C@@H]12 [Leucomisine],percent Bodipy-positive cells,,10.3 ± 1.2%
CN(C)CCOC(=O)C(c1ccccc1)C1(O)CCCC1 (centres undefined) [Cyclopentolate hydrochloride],percent Bodipy-positive cells,,13 ± 4.3%
same,percent Bodipy-positive cells,library stock concentration: 6.1 mM,2.4 ± 0.57%
same,percent Bodipy-positive cells,[1],23.9 ± 1.2%
Nc1ccc(/N=N/c2ccccc2)c(N)n1 [Phenazopyridine HCl],percent Bodipy-positive cells,[2],5.15 ± 1.2%
same,percent Bodipy-positive cells,[1],11.8 ± 1.6%
Nc1ccc(/N=N/c2ccccc2)c(N)n1 [Phenazopyridine hydrochloride],percent Bodipy-positive cells,,3.66 ± 0.82%
same,percent Bodipy-positive cells,library stock concentration: 8 mM,3.51 ± 2.6%
same,percent Bodipy-positive cells,[1],10.2 ± 3.7%
C[C@H](N[C@@H](CCc1ccccc1)C(=O)O)C(=O)N1Cc2ccccc2C[C@H]1C(=O)O,percent Bodipy-positive cells,[1],35.1 ± 7.3%
N[C@@H](CO)c1ccccc1 [(R)-(-)-2-Phenylglycinol],percent Bodipy-positive cells,[3],18.3 ± 14%
C=CCNc1ncnc2ccc(Br)cc12,percent Bodipy-positive cells,[1],27.4 ± 6%
OCC(CO)N[C@H]1C[C@](O)(CO)[C@@H](O)[C@H](O)[C@H]1O [Voglibose],percent Bodipy-positive cells,[2],9.39 ± 1.3%
same,percent Bodipy-positive cells,[1],15.5% and 6.49%
CC(C)=CCC/C(C)=C/CC/C(C)=C/CSc1ccccc1C(N)=O [Farnesyl Thiosalicylic Acid Amide],percent Bodipy-positive cells,[3],13.3 ± 0.36%
CCCCC(=O)N(Cc1ccc(-c2ccccc2-c2nnn[nH]2)cc1)[C@H](C(=O)O)C(C)C,percent Bodipy-positive cells,[1],7.05 ± 1.1%
CCCCC(=O)N(Cc1ccc(-c2ccccc2-c2nnn[nH]2)cc1)[C@H](C(=O)O)C(C)C [Valsartan],percent Bodipy-positive cells,[2],12.5 ± 1.8%
COc1cc(Nc2ncc3c(n2)-c2ccc(Cl)cc2C(c2c(F)cccc2OC)=NC3)ccc1C(=O)O [Alisertib (MLN8237)],percent Bodipy-positive cells,[2],11.2 ± 1.5%
same,percent Bodipy-positive cells,[1],20.8 ± 3.7%
COc1cc(Nc2ncc3c(n2)-c2ccc(Cl)cc2C(c2c(F)cccc2OC)=NC3)ccc1C(=O)O [Alisertib],percent Bodipy-positive cells,library stock concentration: 80 uM,10.6 ± 1.5%
same,percent Bodipy-positive cells,library stock concentration: 400 uM,9.13 ± 1%
same,percent Bodipy-positive cells,library stock concentration: 2 mM,6.3 ± 2.9%
same,percent Bodipy-positive cells,[1],7.76 ± 1.5%
OC(CCN1CCCCC1)(c1ccccc1)c1ccccc1 [Pridinol methanesulfonate],percent Bodipy-positive cells,[1],45.2 ± 24%
OC(CCN1CCCCC1)(c1ccccc1)c1ccccc1 [Pridinol methanesulfonate salt],percent Bodipy-positive cells,,21.8 ± 2.2%
CC(=Nc1ccccc1N)c1c(C)cc(=O)n(O)c1O,percent Bodipy-positive cells,[1],8.04 ± 4.8%
CCCCC[C@](C)(O)/C=C/[C@H]1C(=O)C[C@H](O)[C@@H]1C/C=C\CCCC(=O)O [15(S)-15-methyl Prostaglandin D2],percent Bodipy-positive cells,[3],12.5 ± 3.1%
CCc1ccc(/C=C2/SC(=S)NC2=O)cc1,percent Bodipy-positive cells,[2],30.1 ± 7.8%
same,percent Bodipy-positive cells,[1],28.3% and 33.2%
CC1(COc2ccc3c(c2)ncn3-c2ccc3cccc(N4CCC(N)CC4)c3n2)COC1,percent Bodipy-positive cells,[2],97.5 ± 1%
CCN(CC)CCNC(=O)c1cc(Br)c(N)cc1OC [Bromopride],percent Bodipy-positive cells,,11.2 ± 0.71%
same,percent Bodipy-positive cells,[1],34 ± 9.8%
"O=c1cc(N2CCOCC2)oc2c(-c3ccccc3)cccc12 [LY-294,002 hydrochloride]",percent Bodipy-positive cells,[1],26.5 ± 1.9%
O=c1cc(N2CCOCC2)oc2c(-c3ccccc3)cccc12,percent Bodipy-positive cells,[3],6.6 ± 2%
same,percent Bodipy-positive cells,[2],7.3% and 8.17%
same,percent Bodipy-positive cells,[1],11.9% and 6.6%
same,percent Bodipy-positive cells,library stock concentration: 16.3 mM,15.2 ± 9.9%
COc1cccc(-c2cc(F)ccc2C2Cc3nc(N)nc(C)c3C(=O)N2)n1 (centres undefined),percent Bodipy-positive cells,[2],88.95 ± 0.25%
CCOC(N)=O [Urethane],percent Bodipy-positive cells,[1],39.6 ± 1.5%
same,percent Bodipy-positive cells,library stock concentration: 22.4 mM,10.4 ± 0.51%
O=C(O)CCCCCCC1C(=O)NC(=O)N1CCC(O)C1CCCCC1 (centres undefined),percent Bodipy-positive cells,[3],7.87% and 8.07%
O=C1c2cccc(O)c2C(=O)c2c(O)cccc21 [Danthron],percent Bodipy-positive cells,library stock concentration: 8.3 mM,5.27 ± 0.38%

# Looked up one by one from the entries so far:
compound,measurement,setting,value
O=C(O)CCCCCCC1C(=O)NC(=O)N1CCC(O)C1CCCCC1 (centres undefined),percent Bodipy-positive cells,[3],7.87% and 8.07%
CC(=Nc1ccccc1N)c1c(C)cc(=O)n(O)c1O,percent Bodipy-positive cells,[1],8.04 ± 4.8%
